The target of experiment [1] is T1, V5-BirA(R118G)-ENKD1 (human) (UniProt Q9H0I2).
T1 sequence: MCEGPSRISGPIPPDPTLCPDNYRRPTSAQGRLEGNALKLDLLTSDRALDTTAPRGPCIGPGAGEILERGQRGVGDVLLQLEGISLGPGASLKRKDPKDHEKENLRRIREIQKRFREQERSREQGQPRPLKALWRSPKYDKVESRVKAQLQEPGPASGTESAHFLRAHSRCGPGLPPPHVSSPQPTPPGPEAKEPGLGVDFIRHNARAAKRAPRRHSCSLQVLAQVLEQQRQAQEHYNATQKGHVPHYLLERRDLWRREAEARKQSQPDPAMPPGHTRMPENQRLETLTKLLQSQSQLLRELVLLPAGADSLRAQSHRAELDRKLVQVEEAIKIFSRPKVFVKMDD
Briefly: proximity labelling.

Chains of the proteins cited; added tags and fusions are not shown.
UniProt Q1MSJ5: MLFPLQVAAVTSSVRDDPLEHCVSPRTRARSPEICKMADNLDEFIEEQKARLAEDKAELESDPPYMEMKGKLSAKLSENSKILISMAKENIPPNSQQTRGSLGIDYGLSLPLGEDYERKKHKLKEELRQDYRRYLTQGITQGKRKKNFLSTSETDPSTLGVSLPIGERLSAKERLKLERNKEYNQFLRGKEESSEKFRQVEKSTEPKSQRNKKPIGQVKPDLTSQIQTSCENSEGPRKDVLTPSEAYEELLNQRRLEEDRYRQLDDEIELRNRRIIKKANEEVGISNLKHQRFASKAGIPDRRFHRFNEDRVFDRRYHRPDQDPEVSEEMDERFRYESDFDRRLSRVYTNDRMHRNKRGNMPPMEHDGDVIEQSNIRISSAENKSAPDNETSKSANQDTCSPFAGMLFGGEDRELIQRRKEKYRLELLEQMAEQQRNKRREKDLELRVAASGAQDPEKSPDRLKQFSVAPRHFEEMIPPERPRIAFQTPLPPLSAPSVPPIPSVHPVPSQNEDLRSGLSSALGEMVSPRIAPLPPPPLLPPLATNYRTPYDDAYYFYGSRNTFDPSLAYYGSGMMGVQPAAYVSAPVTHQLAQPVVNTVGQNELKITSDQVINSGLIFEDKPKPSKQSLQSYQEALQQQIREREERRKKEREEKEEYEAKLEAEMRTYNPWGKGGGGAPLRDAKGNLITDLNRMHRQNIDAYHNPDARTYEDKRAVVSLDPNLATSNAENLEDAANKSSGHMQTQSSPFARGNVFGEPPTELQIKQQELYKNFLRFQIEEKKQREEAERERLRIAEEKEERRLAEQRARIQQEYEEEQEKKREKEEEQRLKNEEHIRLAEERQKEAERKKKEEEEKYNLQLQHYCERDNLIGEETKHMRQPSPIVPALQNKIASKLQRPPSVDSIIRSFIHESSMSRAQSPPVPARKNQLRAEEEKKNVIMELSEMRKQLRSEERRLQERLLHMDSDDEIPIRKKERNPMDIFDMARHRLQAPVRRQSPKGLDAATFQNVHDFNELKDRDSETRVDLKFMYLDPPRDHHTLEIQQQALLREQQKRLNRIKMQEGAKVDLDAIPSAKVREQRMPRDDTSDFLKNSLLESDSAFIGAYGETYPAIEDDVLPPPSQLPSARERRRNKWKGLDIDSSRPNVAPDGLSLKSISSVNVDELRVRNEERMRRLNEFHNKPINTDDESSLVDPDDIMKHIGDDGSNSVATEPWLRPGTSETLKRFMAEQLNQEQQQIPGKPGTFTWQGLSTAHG
UniProt Q8IX90: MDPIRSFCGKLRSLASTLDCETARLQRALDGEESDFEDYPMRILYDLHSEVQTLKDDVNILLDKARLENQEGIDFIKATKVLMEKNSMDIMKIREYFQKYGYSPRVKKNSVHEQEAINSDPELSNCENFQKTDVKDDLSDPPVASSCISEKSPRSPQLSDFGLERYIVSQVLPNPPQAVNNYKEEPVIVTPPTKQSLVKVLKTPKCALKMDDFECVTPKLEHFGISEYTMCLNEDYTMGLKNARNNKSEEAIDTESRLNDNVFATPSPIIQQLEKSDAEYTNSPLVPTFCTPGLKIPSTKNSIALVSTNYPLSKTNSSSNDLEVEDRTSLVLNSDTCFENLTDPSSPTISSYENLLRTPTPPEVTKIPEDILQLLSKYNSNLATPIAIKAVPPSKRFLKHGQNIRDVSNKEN
UniProt Q8N4C6: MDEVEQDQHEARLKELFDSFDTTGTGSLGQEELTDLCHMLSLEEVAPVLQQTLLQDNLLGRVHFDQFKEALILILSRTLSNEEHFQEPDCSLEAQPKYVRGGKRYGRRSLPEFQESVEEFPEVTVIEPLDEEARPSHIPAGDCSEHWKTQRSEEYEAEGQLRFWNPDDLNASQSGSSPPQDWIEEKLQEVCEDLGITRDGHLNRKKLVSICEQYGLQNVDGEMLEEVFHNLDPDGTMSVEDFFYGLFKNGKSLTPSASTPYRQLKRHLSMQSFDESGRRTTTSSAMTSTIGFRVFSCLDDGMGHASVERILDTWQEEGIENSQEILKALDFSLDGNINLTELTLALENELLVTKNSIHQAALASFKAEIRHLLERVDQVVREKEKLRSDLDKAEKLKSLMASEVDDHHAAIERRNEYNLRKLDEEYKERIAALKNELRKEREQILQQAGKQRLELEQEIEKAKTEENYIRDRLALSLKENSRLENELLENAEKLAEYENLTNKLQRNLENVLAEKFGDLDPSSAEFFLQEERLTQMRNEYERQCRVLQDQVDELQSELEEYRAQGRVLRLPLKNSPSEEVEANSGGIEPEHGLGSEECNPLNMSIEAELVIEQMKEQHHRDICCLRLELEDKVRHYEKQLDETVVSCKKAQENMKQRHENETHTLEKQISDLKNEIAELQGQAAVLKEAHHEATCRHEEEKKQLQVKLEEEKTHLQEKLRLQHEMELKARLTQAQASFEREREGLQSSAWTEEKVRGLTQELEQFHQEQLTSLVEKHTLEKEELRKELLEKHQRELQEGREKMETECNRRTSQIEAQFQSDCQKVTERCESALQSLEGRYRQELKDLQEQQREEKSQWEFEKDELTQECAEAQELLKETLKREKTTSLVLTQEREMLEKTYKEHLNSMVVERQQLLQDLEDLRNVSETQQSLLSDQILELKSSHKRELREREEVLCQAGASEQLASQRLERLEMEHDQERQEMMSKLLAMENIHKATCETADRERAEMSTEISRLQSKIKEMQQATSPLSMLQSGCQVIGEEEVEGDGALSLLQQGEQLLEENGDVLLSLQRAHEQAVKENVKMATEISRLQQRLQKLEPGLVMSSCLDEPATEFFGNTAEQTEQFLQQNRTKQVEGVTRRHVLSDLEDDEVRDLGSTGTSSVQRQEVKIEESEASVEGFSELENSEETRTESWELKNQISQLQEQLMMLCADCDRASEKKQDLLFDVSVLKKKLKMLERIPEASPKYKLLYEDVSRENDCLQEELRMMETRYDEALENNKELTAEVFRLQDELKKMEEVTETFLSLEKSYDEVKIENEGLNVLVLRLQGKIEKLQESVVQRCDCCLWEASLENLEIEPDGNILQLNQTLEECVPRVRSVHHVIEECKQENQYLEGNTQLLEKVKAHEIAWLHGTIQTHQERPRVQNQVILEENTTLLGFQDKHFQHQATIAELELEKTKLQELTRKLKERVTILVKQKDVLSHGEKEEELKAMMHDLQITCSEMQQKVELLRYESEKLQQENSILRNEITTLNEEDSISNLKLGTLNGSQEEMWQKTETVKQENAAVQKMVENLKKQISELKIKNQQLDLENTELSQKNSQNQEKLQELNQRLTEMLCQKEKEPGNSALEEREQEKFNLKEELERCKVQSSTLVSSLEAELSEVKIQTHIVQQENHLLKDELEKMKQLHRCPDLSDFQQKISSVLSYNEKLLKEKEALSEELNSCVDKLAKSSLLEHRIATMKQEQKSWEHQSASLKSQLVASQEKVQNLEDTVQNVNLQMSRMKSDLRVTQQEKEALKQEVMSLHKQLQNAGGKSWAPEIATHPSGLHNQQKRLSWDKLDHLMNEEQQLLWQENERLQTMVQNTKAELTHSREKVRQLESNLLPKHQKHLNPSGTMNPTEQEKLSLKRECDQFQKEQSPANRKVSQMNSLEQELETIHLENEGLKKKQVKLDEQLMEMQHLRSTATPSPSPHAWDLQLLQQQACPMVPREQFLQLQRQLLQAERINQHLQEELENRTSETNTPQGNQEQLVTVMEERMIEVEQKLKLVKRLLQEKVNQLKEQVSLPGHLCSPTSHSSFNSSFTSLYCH
UniProt P27816: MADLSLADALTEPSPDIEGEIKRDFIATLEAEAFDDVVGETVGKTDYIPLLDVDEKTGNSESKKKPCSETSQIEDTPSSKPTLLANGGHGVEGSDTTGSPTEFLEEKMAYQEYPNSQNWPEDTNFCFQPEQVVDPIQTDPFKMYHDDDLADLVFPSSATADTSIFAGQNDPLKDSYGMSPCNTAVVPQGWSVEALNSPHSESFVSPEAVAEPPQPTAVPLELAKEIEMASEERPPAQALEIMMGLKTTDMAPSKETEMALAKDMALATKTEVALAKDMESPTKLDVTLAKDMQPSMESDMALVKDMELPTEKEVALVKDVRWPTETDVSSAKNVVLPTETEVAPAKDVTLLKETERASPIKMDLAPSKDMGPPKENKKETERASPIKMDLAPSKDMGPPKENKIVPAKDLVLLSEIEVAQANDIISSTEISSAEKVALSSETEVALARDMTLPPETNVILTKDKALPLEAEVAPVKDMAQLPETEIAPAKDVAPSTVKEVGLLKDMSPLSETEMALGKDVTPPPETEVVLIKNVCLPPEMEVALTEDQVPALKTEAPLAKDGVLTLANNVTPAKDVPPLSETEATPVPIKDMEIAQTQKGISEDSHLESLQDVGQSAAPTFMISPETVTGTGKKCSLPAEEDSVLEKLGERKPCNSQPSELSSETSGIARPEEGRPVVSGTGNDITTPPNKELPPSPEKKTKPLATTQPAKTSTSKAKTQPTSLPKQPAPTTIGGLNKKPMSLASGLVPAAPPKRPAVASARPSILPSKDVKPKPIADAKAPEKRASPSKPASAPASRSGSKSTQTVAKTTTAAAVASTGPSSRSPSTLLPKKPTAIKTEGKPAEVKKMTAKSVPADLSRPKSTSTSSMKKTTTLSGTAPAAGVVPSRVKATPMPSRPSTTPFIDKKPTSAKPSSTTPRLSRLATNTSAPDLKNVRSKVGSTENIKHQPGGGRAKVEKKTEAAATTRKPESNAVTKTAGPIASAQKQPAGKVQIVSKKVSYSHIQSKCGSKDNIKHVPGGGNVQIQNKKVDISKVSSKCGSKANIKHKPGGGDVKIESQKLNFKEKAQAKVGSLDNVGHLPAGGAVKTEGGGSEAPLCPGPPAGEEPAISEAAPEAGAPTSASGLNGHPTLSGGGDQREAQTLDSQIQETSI

The target in experiment [2] is T1, V5-BirA(R118G)-ENKD1 (human). Briefly: proximity labelling. This is another data set of the same source.

The text below walks through data of doi:10.1101/2021.07.20.453048.

Read-outs that look alike come from different tables or passages of the source. These are yes or no findings as the source states them, for the method shown. Binding seen in cells or lysates may run through a third protein. Here binding means that the protein was enriched with, or labelled near, the bait; the list need not be complete. Where a sequence is shown, tags or fusion partners need not be part of it.

As to CSPP1 (from UniProt Q1MSJ5 1-1256), the binding entry in experiment [1] was “binds”.

On to SKA3 (from UniProt Q8IX90 1-412), for which the binding entry in experiment [1] is listed as “binds”.

Turning to NIN (from UniProt Q8N4C6 1-2090), in experiment [1], the binding result is given as “binds”.

For MAP4 (from UniProt P27816 1-1152), the binding entry in experiment [1] was “binds”.

B1: CEP162 (protein, UniProt Q5TB80 1-1403)
chain: MANCSQEELDEEFEQFMKELSDDSFENSDKTARQSKKEMKKKDTVPWWITEDDFKDDGLLGTNVSYLKTKKTSQPVMEIEEESAEKIQFLKSSGTSLLSTDSLETNELVVSELNHSSLGVGLDTLEEQEEKEQFFARLEKGLTSSIDYSRLNKELDSNDSTHFKALHSNQANAELTDDEHENESKHEELAENYSDDFEDEYVGAPLTTKDEEMPSKENSKSEKISVPKQEEEKTGMLANVVLLDSLDSVAEVNLDEQDKITPKPRCLPEMTENEMTGTGVSYGQSSSDVEALHQAYCHIAHSLGDEDKQKIESNTVEDIKSSVKGHPQENEENSKNISTMESDLPTVEELMKPIRIDSFGISGFDLQPVSSEKVAERKETEFFSSLPLKMNPNILSQDSQHVNLFFDKNDENVILQKTTNESMENSCPQVTEVTATEEHVDKMYLNILRKKITVNSSSLSQDDKINKTYRSQLSSEEEGAVMGKQVPYKKARSAPPLLKRKPQSGLYASVRSSGYGKPSSPLKMFSTLEKKTSEDIIKSKNLRSISTSNQPRKKEILSGTKLIKPAALDKPAHKTESCLSTRKKSENPTETDSCIQFQTDSLGYCGENKEKKLLMFKRVQEAEDKWRGAQALIEQIKATFSEKEKELENKLEELKKQQEKELFKLNQDNYILQAKLSSFEETNKKQRWLHFGEAADPVTGEKLKQIQKEIQEQETLLQGYQQENERLYNQVKDLQEQNKKNEERMFKENQSLFSEVASLKEQMHKSRFLSQVVEDSEPTRNQNFTDLLAELRMAQKEKDSLLEDIKRLKQDKQALEVDFEKMKKERDQAKDQIAYVTGEKLYEIKILEETHKQEISRLQKRLQWYAENQELLDKDALRLREANEEIEKLKLEIEKLKAESGNPSIRQKIRLKDKAADAKKIQDLERQVKEMEGILKRRYPNSLPALILAASAAGDTVDKNTVEFMEKRIKKLEADLEGKDEDAKKSLRTMEQQFQKMKIQYEQRLEQQEQLLACKLNQHDSPRIKALEKELDDIKEAHQITVRNLEAEIDVLKHQNAELDVKKNDKDDEDFQSIEFQVEQAHAKAKLVRLNEELAAKKREIQDLSKTVERLQKDRRMMLSNQNSKGREEMSAKRAKKDVLHSSKGNANSFPGTLDSKLYQPHTFTDSHVSEVLQENYRLKNELEGLISEKNELKMKSEAVMNQFENSMRRVKEDTAAHIASLKASHQREIEKLLCQNAVENSSSKVAELNRKIATQEVLIRHFQSQVNELQSKQESLVVSEVREEILQKEITKLLEELREAKENHTPEMKHFVGLEKKIKQMEMRHAQREQELQQIIQQTHQVVETEQNKEVEKWKRLAQLKNRELEKFRTELDSILDVLRELHRQGVVVPVAFADEMNAPEY
With B1, the binding entry in experiment [2] is “binds”.

B2: CKAP2L (protein, UniProt Q8IYA6 1-745)
chain: MVGPGPTAAAAVEERQRKLQEYLAAKGKLKSQNTKPYLKSKNNCQNQPPSKSTIRPKNDVTNHVVLPVKPKRSISIKLQPRPPNTAGSQKPKLEPPKLLGKRLTSECVSSNPYSKPSSKSFQQCEAGSSTTGELSRKPVGSLNIEQLKTTKQQLTDQGNGKCIDFMNNIHVENESLDNFLKETNKENLLDILTEPERKPDPKLYTRSKPKTDSYNQTKNSLVPKQALGKSSVNSAVLKDRVNKQFVGETQSRTFPVKSQQLSRGADLARPGVKPSRTVPSHFIRTLSKVQSSKKPVVKNIKDIKVNRSQYERPNETKIRSYPVTEQRVKHTKPRTYPSLLQGEYNNRHPNIKQDQKSSQVCIPQTSCVLQKSKAISQRPNLTVGRFNSAIPSTPSIRPNGTSGNKHNNNGFQQKAQTLDSKLKKAVPQNHFLNKTAPKTQADVTTVNGTQTNPNIKKKATAEDRRKQLEEWQKSKGKTYKRPPMELKTKRKVIKEMNISFWKSIEKEEEEKKAQLELSSKINNTLTECLNLIEGGVPSNEILNILSSIPEAEKFAKFWICKAKLLASKGTFDVIGLYEEAIKNGATPIQELRKVVLNILQDSNRTTEGITSDSLVAETSITSVEELAKKMESVKSCLSPKEREQVTATPRIAKAEQHNYPGIKLQIGPIPRINGMPEVQDMKFITPVRRSSRIERAVSRYPEMLQEHDLVVASLDELLEVEETKCFIFRRNEALPVTLGFQTPES
For the molecule B2, the binding result in experiment [2] is reported as “binds”.
